This is one part of the list.
B1: il2ra_site1_1z92_sap_19_mot_7891c0d1f2c7eedbb314a075540956e2_0001_1_af2_000000230_0001_54_65_H_._HHH_b1_04373_af2_0001_0000400030_0000001_1_0001 (protein)
chain: SSMEFAVEQLVRKFERSPEARESATRILSRLLGIPPEEVEELLKELVELYRKDPEKAAELLKKLA
B2: il2ra_site1_3nfp_normal_mot_HHH_b1_05396_000000293_0001_1_19_H_._HHH_b1_06882_0001_0000700048_0000001_1 (protein)
chain: SSSSDDEELNRLLEEILRLAFEGDEEEAQRLIEELEKLAEELNDEAIRKFLEDILRALELLSSSS
B3: il2ra_site2_3nfp_normal_mot_HHH_b1_00660_af2_000000090_0001_40_57_H_._HHH_b2_05870_0001_0000500009_0000001_0_af2pred_0001_af2pred (protein)
chain: SSSSSSDEVEELIRQAEELLEKGNPEEAKELLEKAALIAAELGDFELFARIAELLLKVDSSSSSS
B4: il2ra_site2_2erj_sap_22_mot_077498ac8ee2fbf61350c97112a77e25_0001_1_000000076_0001_36_49_H_._HHH_b1_00573_af2_0001_0000600015_0000001_0_0001 (protein)
chain: SSSSSDVEEELEKLIEEAEELKKENPEEAASVLIEAALLALENNDEEIFKKVSELFEELFSSSSS
B5: il2ra_site2_3nfp_normal_mot_HHH_b1_05627_af2_000000038_0001_43_56_H_._HHH_b2_01306_af2_0001_0000900014_0000001_1 (protein)
chain: SSSSDKREEYVKAALELAKLAAEQGNPEIAEKHLRLAELFAEAVNNEELEELVRKVAEELSSSSS
B6: il2ra_site1_1z92_normal_mot_HHH_b1_04604_af2_000000029_0001_42_56_H_._HHH_b2_04891_af2_0001_0000200006_0000001_0_af2pred_0001_af2pred (protein)
chain: SSSSSSNLVELLRELQRLLREGDEEEFEKLAEEVKELAKELNSRSVRRLVELYEEELNSSSSSSS
B7: il2ra_site1_1z92_sap_11_mot_1f8b761ca86cd746b2cfece001fd8b2b_0001_1_000000273_0001_33_46_H_._98c316dcd33a4a4659f1bb01e8c35f85_0001_0001_0000100019_0000001_0_000 … (protein)
chain: DDKEAIKEEIEALAEIVGVDSVEVEERNGRFHVTIEGNDNRAETAAKVVERMAEAFGIDVEVEVE
B8: il2ra_site2_2erj_normal_mot_HHH_b2_05866_000000027_0001_43_57_H_._HHH_b2_01310_0001_0000200015_0000001_0 (protein)
chain: SSSSSDHKEIWEEVAELLARLAEVSEEELEELLKEAKRLAEEVNDPILRRYVEFAERDVKSSSSS
B9: il2ra_site1_3nfp_normal_mot_HHH_b2_05589_af2_000000178_0001_1_18_H_._HHH_b2_04912_af2_0001_0000100001_0000001_0 (protein)
chain: SSSSSEEFRQLQELDRELWKLRREGDEEEAKRVAKEALELAEELNDEAAKRLVRLWLELLSSSSS
B10: il2ra_site1_1z92_sap_25_mot_HHH_b1_04615_af2_000000156_0001_38_52_H_._HHH_b1_02208_0001_0000100001_0000001_0_0001_af2pred_0001_af2pred (protein)
chain: SSSSSDEEEIEEEILKLFREAMRIKDPEERERVLERAKELAEEINDERAKEDIERLEELLSSSSS
B11: il2ra_site2_3nfp_sap_23_mot_347257a5708f0dc4a322ca97a98db719_0001_1_af2_000000210_0001_36_49_H_._796cb09f51c241c629a2416424e53d75_0001_0001_0000100001_0000001_0 … (protein)
chain: SSSSDKEEERVEELLEELKRLIEEGDEEKARRAFAEAAHLIFELNDSELFARLAELALELWSSSS
B12: il2ra_site2_2erj_normal_mot_HHH_b1_06554_af2_000000190_0001_44_57_H_._HHH_b1_08046_af2_0001_0000200004_0000001_0 (protein)
chain: SSSSSDTVEVLLELAEELAKEGDKAELELILRYLELNREDDNTEEVEEAYEIVRELLERLSSSSS
B13: il2ra_site1_2b5i_sap_13_mot_HHH_b2_00063_000000054_0001_1_20_H_._HHH_b1_05167_0001_0000400023_0000001_0_0001 (protein)
chain: SSSSSERARQAIELFREADELDKRGNPEEAERVLEEALEIAKENGNRLLILMIENALRTLKSSSS
B14: il2ra_site2_3nfp_normal_mot_HHH_b1_00239_000000199_0001_23_39_H_._HHH_b2_02904_0001_0000200025_0000001_0 (protein)
chain: SSSSNEEILREAAELLLELLEERGDEEELRELEELLEELKRHGDPELQLELYAVLARIYSSSSSS
B15: il2ra_site2_2erj_normal_mot_c2bf78bdce995293a161f7082e24b401_0001_af2_000000000_0001_17_32_H_._HHH_b1_00672_0001_0000200019_0000001_0 (protein)
chain: SSSSTAEELFKLLQELLRLLQEGDEEEAERVLEEARRFAEELGSDNVKEFLEILFRLFEESSSSS
B16: il2ra_site1_1z92_normal_mot_ems_3hC_153_0002_000000245_0001_46_63_H_._6169ea741eebcbe25a7a19b2986e1e54_0001_1_0001_0000100003_0000001_0_af2pred_0001_af2pred (protein)
chain: SEEEELEELAEEAGVPPKDLKFLVEVAKRKAGGDPELTLEILVRLLKSFGDPDAQELARLIEEKR
B17: il2ra_site2_2erj_normal_mot_HHH_b1_07584_000000201_0001_42_55_H_._HHH_b1_05881_0001_0000300010_0000001_0_af2pred_0001_af2pred (protein)
chain: SSSSSLEKRVAELLEEVIRLAHEGNPEEARRLLEELLELLEELNNPELFAAVEANLRRVRKSSSS
B18: il2ra_site1_3nfp_normal_mot_HHH_b1_08723_000000044_0001_1_15_H_._HHH_b2_03902_af2_0001_0001400091_0000001_1 (protein)
chain: SSSSSDEELERLFRELFELAQRGDEEEARKLAEELAELAEELGDPHTLRSAEIALRLLRRSSSSS
B19: il2ra_site2_2erj_sap_22_mot_HHH_b2_01204_af2_000000051_0001_19_34_H_._HHH_b2_04498_0001_0000300038_0000001_1_0001_af2pred_0001_1_af2pred_swapped (protein)
chain: SSSSSEEVRERVEELLEEAKQIEDPEEALHVLSEAFELALKVDDPELKERVLRVLRELTNSSSSS

biological target: il2ra, P01589; assay: yeast display titration

Apparent Kd, inactive:
B1 no binding seen, B2 no binding seen, B3 no binding seen, B4 no binding seen, B5 no binding seen, B6 no binding seen, B7 no binding seen, B8 no binding seen, B9 no binding seen, B10 no binding seen, B11 no binding seen, B12 no binding seen, B13 no binding seen, B14 no binding seen, B15 no binding seen, B16 no binding seen, B17 no binding seen, B18 no binding seen, B19 no binding seen
